# Results deposited as PubChem BioAssay AID743121 (NCATS, 2013)
# Purpose: 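Partners whose loss is lethal together with topoisomerase I blockade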 (primary screen)
# Cell system: MDA-MB-231 cells, a human breast cancer line
# Knock-down reagent: single siRNA against human genes, 20 nM siRNA (0.8 pmol per well)
# Duration: 120 h (drug added 48 h after transfection, read 72 h later)
# Conditions: camptothecin 20 nM (about EC30) for 72 h; vehicle 0.1% DMSO in parallel plates
# Measured: 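CellTiter-Glo ATP signal, scaled to control siRNA as percent viability; sensitisation given as log2 of untreated divided by camptothecin-treated viability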
# Reading the numbers: log2 vehicle/camptothecin viability: higher = stronger sensitisation to camptothecin; viability with camptothecin and viability without drug: higher = more viable cells
# Rule for the call: 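Active genes have an RSA gene-level p-value below 0.001, computed from the ratios of their separate siRNAs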
# The whole screen tested about 26,000 reagents; below is an unselected part. Over the whole deposit, 167 (0.63%) are marked active. 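Calls are per gene from RSA p-values that are not deposited; an individual active-marked siRNA can sensitise only weakly.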 Reagents against one gene are numbered here.
Target gene,siRNA no.,log2 vehicle/camptothecin viability,viability with camptothecin (% of control),viability without drug (% of control),outcome
SLC25A44 (GeneID 9673),1,-0.439,58.4,43.1,inactive
SLC25A44 (GeneID 9673),2,-0.229,105,89.6,inactive
SLC25A44 (GeneID 9673),3,-0.112,55.6,51.5,inactive
SLC25A44 (GeneID 9673),4,-0.0841,64.7,61,inactive
ITGA2B (GeneID 3674),1,-0.0995,46.1,43,inactive
ITGA2B (GeneID 3674),2,-0.0928,75.7,71,inactive
ITGA2B (GeneID 3674),3,0.995,38.8,77.3,inactive
RRH (GeneID 10692),1,0.0734,61.9,65.1,inactive
RRH (GeneID 10692),2,-0.241,111,94.4,inactive
RRH (GeneID 10692),3,-0.309,71,57.3,inactive
RRH (GeneID 10692),4,0.425,7.17,9.62,inactive
UNC5A (GeneID 90249),1,0.104,50.3,54.1,inactive
UNC5A (GeneID 90249),2,0.391,60.8,79.8,inactive
UNC5A (GeneID 90249),3,0.0238,64.8,65.9,inactive
UNC5A (GeneID 90249),4,-0.00536,99.5,99.1,inactive
TCOF1 (GeneID 6949),1,-0.227,92,78.6,inactive
TCOF1 (GeneID 6949),2,-0.418,64.7,48.4,inactive
TCOF1 (GeneID 6949),3,0.588,38,57.1,inactive
TCOF1 (GeneID 6949),4,-0.944,35.7,18.6,inactive
TBC1D1 (GeneID 23216),1,-0.09,50.1,47.1,inactive
TBC1D1 (GeneID 23216),2,-0.299,107,86.9,inactive
TBC1D1 (GeneID 23216),3,0.281,94.8,115,inactive
TBC1D1 (GeneID 23216),4,0.0244,64.5,65.6,inactive
CDC16 (GeneID 8881),1,-0.378,105,81,inactive
CDC16 (GeneID 8881),2,0.546,51.5,75.1,inactive
CDC16 (GeneID 8881),3,-0.0152,86.5,85.6,inactive
CDC16 (GeneID 8881),4,-0.216,59.6,51.3,inactive
IL17RD (GeneID 54756),1,-0.348,101,79.4,inactive
IL17RD (GeneID 54756),2,-0.0194,62.8,62,inactive
IL17RD (GeneID 54756),3,-0.301,109,88.2,inactive
IL17RD (GeneID 54756),4,-0.253,105,87.7,inactive
ADRB1 (GeneID 153),1,-0.0178,33.6,33.2,inactive
ADRB1 (GeneID 153),2,-0.414,108,81.1,inactive
ADRB1 (GeneID 153),3,0.0442,64.4,66.4,inactive
ADRB1 (GeneID 153),4,-0.773,63.7,37.3,inactive
GIT1 (GeneID 28964),1,-0.642,74.8,47.9,inactive
GIT1 (GeneID 28964),2,0.44,51.4,69.7,inactive
GIT1 (GeneID 28964),3,-0.218,21.5,18.5,inactive
GIT1 (GeneID 28964),4,-0.0366,33.3,32.5,inactive
STYX (GeneID 6815),1,-0.127,71.9,65.8,inactive
STYX (GeneID 6815),2,-0.091,106,99.5,inactive
STYX (GeneID 6815),3,-0.217,79.8,68.6,inactive
STYX (GeneID 6815),4,-0.218,80.9,69.5,inactive
NUF2 (GeneID 83540),1,-0.833,71.5,40.1,inactive
NUF2 (GeneID 83540),2,-0.904,58.2,31.1,inactive
NUF2 (GeneID 83540),3,-0.677,57.7,36.1,inactive
NUF2 (GeneID 83540),4,-0.77,37.3,21.9,inactive
